Results on two substances are retold here after patent publication US7148020B2 (Arexis AB, priority 2001, dated 2006).

The nature of this data set: general procedure: Fmoc solid-phase peptide synthesis; Fmoc-Gly-TentaGel-R-PHB resin (~0.2 mmol/g, Rapp Polymere); DIC/HOBt; HATU/DIPEA; HBTU/DIPEA; DIC/HOAt. The conditions noted are these: whole synthesis.

In the case of “KTA-[Gly-(Gly-Pro-Hyp)5-Gly-CII(257-258Hyp-273T-274)]3-L(F)Ahx”, where the note is “scale 20 μmol”, the isolated mass came out at 8.9 mg and the isolated yield is 4.1%.

Turning to “[(Pro-Hyp-Gly)5-CII(257-258Hyp-273T-274)]3-LAhx”, for the setting “scale 10 μmol”, the isolated mass was determined as 5.2 mg and the isolated yield is 5.2%.
